The list shows a part of the results.
What was measured:
Test in all cases: log2 fold change, soluble protein after heating vs DMSO (PISA); higher = thermal stabilisation; K562 lysate, 10 uM; active = over 0.2 and 3.5 SD of the protein, either way, in both replicates (recomputed)
[1] = compound: Cc1cn(-c2cc(NC(=O)c3ccc(C)c(Nc4nccc(-c5cccnc5)n4)c3)cc(C(F)(F)F)c2)cn1 [nilotinib]
Method in brief: (§1)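 Following dounce homogenisation of K562 pellets in PBS pH 7.4 with 1 mM MgCl2, crude extract at 1 mg/mL protein was incubated for 30 min with 10 μM compound. Aliquots were then heated for 3 min over 48°C-58°C and pooled, NP-40 was added to 0.5% at 4°C, and soluble protein was recovered as the supernatant at 21,000xg for 90 min. Channel-sum-equalised TMTpro 16plex LC-MS/MS quantified this protein. Each value, from duplicates, is a log-two fold change in thermal stability relative to solvent controls.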

Chains of the proteins cited; added tags and fusions are not shown. Lines headed by an entry give the natural chain unless they say otherwise; changes in a name come on top.
UniProt Q9HAB8: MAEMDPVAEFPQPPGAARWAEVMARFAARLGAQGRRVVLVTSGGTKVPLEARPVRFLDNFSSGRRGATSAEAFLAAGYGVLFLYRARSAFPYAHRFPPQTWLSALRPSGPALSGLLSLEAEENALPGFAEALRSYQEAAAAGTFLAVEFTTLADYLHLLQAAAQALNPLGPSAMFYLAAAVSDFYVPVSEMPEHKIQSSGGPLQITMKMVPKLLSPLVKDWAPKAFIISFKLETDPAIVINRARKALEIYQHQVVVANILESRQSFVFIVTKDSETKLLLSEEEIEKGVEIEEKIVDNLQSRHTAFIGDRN
UniProt Q9Y2G5: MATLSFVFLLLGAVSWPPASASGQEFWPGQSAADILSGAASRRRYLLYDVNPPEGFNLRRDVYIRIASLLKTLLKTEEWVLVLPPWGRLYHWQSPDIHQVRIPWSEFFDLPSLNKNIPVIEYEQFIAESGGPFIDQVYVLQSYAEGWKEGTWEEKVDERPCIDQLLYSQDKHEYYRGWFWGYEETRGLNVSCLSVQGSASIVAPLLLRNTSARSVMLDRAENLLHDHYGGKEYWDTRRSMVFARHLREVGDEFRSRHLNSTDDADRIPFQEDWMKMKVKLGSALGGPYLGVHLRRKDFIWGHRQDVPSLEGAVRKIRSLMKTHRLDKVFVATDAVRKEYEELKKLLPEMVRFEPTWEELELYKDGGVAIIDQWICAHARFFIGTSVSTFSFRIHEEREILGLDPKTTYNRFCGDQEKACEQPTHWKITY
UniProt Q02809: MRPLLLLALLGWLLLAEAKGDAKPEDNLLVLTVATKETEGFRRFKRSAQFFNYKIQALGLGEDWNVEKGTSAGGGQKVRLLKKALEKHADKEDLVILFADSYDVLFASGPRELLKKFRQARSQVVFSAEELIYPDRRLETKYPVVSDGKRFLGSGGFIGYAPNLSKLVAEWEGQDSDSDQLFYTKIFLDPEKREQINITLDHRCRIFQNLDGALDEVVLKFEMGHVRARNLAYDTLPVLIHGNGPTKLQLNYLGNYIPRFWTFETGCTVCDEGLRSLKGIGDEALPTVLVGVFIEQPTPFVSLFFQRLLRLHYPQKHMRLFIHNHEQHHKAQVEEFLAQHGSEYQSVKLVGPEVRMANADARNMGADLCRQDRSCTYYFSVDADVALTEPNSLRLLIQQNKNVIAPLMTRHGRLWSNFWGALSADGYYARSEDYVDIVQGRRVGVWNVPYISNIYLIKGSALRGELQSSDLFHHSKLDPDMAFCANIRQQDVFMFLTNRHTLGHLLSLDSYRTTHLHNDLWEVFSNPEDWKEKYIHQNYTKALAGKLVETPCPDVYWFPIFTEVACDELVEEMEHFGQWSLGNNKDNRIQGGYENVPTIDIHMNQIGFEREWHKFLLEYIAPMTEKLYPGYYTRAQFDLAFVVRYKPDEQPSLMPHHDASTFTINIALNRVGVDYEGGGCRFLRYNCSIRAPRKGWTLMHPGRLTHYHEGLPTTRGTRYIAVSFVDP
UniProt Q8IY26: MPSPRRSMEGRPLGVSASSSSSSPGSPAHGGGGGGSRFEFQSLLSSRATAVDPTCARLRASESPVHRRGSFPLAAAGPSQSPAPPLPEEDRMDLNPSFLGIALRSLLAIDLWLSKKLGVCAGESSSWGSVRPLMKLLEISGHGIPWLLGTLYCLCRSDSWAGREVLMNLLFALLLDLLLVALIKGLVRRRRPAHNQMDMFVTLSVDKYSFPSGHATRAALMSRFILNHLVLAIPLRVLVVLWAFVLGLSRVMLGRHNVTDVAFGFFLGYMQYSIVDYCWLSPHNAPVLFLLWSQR
UniProt Q7Z3K3: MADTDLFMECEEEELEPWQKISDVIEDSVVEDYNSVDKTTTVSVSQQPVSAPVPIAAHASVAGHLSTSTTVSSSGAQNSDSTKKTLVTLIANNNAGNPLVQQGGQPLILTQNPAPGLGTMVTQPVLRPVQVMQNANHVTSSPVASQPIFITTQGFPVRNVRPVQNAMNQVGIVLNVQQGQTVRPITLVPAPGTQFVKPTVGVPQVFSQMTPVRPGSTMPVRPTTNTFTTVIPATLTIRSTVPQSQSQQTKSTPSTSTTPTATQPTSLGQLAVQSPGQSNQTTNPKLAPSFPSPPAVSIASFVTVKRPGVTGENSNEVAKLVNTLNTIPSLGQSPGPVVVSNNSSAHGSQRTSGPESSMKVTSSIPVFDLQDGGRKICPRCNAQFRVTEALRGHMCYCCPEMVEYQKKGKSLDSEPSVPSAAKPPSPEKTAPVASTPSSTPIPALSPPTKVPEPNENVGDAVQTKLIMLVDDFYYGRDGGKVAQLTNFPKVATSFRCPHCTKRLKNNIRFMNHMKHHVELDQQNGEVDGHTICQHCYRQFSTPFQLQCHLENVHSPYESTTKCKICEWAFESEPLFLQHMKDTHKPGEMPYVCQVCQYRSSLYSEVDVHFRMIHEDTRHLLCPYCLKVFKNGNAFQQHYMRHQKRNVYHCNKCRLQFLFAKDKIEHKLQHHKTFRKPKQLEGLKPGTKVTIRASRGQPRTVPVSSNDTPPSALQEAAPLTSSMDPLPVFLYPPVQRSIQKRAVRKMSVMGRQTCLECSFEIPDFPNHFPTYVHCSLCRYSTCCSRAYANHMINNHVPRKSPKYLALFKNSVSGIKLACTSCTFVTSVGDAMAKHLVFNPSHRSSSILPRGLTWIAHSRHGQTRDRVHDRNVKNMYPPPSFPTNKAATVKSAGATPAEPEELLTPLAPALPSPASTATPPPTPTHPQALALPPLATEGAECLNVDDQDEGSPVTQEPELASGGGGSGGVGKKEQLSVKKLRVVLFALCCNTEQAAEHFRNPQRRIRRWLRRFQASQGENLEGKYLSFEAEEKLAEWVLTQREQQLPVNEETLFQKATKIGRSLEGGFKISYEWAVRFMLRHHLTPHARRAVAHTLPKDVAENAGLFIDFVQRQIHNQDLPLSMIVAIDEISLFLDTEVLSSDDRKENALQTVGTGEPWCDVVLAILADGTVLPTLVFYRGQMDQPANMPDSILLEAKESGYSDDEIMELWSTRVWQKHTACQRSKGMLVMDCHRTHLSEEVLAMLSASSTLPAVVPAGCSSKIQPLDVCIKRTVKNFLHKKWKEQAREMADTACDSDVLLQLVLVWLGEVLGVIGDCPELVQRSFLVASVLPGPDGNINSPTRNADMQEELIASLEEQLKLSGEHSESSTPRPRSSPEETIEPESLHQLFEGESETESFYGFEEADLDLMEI
UniProt Q9H307: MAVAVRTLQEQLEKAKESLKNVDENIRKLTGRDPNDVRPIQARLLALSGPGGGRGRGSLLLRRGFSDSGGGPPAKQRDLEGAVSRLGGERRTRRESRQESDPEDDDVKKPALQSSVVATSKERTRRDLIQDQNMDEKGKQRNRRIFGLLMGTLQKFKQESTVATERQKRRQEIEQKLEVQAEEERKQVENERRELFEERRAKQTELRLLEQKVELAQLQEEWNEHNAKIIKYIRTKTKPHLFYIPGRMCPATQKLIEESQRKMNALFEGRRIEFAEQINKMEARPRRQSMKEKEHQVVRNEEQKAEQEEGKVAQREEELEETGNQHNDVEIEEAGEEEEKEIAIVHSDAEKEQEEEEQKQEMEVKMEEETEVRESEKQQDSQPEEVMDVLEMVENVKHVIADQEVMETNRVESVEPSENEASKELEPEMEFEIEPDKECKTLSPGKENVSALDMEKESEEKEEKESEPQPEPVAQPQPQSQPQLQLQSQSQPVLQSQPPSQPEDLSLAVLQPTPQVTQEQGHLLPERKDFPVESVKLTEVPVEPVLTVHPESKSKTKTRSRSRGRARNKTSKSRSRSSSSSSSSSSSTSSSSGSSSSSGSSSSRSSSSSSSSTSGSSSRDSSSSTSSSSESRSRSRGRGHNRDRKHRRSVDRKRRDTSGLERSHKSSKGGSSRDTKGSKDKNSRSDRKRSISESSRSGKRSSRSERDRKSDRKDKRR
UniProt P54277: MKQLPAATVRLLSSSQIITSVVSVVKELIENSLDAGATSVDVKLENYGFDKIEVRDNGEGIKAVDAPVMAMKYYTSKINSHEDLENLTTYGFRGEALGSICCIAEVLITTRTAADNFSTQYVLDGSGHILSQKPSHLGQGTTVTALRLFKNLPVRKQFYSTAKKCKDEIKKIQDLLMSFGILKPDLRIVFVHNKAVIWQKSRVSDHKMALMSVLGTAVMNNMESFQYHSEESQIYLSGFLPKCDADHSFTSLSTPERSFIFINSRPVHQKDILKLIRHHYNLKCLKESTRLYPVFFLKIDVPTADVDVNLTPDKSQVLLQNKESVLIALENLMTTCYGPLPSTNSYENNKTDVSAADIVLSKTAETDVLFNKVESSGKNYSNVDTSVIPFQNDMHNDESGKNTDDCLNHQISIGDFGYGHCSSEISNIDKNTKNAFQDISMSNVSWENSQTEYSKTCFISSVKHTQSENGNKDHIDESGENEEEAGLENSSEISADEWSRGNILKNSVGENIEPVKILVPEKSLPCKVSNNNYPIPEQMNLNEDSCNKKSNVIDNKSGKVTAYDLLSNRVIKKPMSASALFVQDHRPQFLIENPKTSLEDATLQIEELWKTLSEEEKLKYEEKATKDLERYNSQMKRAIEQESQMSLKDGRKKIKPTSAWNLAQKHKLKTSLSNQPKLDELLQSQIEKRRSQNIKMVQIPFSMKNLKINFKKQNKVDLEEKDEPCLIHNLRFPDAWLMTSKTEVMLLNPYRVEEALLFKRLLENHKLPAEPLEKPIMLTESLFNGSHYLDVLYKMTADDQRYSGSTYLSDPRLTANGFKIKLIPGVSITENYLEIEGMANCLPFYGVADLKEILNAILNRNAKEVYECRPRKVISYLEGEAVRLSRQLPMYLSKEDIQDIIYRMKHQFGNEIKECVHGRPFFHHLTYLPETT
UniProt O43660: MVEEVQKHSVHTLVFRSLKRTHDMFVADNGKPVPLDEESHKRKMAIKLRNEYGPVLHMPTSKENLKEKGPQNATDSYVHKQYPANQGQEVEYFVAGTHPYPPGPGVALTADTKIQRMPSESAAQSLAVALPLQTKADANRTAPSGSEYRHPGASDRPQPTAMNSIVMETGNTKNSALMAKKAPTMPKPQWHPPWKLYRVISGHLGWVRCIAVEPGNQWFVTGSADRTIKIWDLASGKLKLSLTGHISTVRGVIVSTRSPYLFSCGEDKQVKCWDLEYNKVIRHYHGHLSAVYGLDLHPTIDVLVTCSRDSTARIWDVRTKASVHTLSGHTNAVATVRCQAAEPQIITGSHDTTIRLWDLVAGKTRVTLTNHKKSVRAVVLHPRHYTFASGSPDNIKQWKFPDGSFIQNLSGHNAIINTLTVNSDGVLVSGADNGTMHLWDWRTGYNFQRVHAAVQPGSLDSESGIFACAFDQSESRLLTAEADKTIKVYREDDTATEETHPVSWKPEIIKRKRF
UniProt Q14651: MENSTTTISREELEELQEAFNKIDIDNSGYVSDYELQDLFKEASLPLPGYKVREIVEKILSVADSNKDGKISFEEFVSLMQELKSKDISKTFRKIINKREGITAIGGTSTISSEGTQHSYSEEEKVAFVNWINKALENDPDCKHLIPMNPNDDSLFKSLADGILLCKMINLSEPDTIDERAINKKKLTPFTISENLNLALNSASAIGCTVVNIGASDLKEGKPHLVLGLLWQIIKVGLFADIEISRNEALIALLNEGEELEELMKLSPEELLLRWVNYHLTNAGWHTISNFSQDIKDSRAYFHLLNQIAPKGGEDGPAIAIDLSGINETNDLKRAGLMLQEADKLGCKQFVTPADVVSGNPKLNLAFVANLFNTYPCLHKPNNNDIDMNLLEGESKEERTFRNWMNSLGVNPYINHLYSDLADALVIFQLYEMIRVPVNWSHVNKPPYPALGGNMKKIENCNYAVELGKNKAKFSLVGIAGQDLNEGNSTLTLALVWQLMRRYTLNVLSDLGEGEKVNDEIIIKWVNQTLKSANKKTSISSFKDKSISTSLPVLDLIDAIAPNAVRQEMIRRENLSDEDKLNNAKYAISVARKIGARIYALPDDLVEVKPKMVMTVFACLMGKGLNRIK

[2] = compound: Cc1nc(Nc2n[nH]c3c2CN(C(=O)N[C@H](CN(C)C)c2ccccc2)C3(C)C)c2sccc2n1
Method in brief: as §1

[3] = compound: Cc1nc(Nc2ncc(C(=O)Nc3c(C)cccc3Cl)s2)cc(N2CCN(CCO)CC2)n1 [dasatinib]
Method in brief: as §1

[4] = compound: Cc1ncc(-c2ccnc(Nc3ccc(S(C)(=O)=O)cc3)n2)n1C(C)C
Method in brief: as §1

[5] = compound: Cn1cc(-c2ccc3c(c2)CCN3C(=O)Cc2cccc(C(F)(F)F)c2)c2c(N)ncnc21
Method in brief: as §1

[6] = compound: Cn1cc(CNCC2CCN(c3ncc(C(=O)NO)cn3)CC2)c2ccccc21 [quisinostat]
Method in brief: as §1

[7] = compound: Cn1cncc1[C@@](N)(c1ccc(Cl)cc1)c1ccc2c(c1)c(-c1cccc(Cl)c1)cc(=O)n2C [tipifarnib]
Method in brief: as §1

[8] = compound: NC(=O)Nc1cc(-c2cccc(F)c2)sc1C(=O)N[C@H]1CCCNC1
Method in brief: as §1

[9] = compound: NC(=O)c1cnc(N[C@@H]2CCCC[C@@H]2N)nc1Nc1cccc(-n2nccn2)c1
Method in brief: as §1

[10] = compound: NC1(c2ccc(-c3nc4ccn5c(=O)[nH]nc5c4cc3-c3ccccc3)cc2)CCC1
Method in brief: as §1

[11] = compound: NCC(=O)Nc1ccc(-n2nc(C(F)(F)F)cc2-c2ccc3c(ccc4ccccc43)c2)cc1
Method in brief: as §1

[12] = compound: O=C(CCCCCCC(=O)Nc1ccccc1)NO [vorinostat]
Method in brief: as §1

[13] = compound: O=C(O)c1ccc2c(c1)nc(Nc1cccc(Cl)c1)c1ccncc12 [silmitasertib]
Method in brief: as §1

[14] = compound: O=C1NC(=O)C(c2cnc3ccccn23)=C1c1cn2c3c(cc(F)cc13)CN(C(=O)N1CCCCC1)CC2
Method in brief: as §1

[15] = compound: c1cn2cc(-c3ccc4cn[nH]c4c3)nc(Nc3ccc(N4CCOCC4)cc3)c2n1 [entospletinib]
Method in brief: as §1

Row | Target | log2 fold change [1] | log2 fold change [2] | log2 fold change [3] | log2 fold change [4] | log2 fold change [5] | log2 fold change [6] | log2 fold change [7] | log2 fold change [8] | log2 fold change [9] | log2 fold change [10] | log2 fold change [11] | log2 fold change [12] | log2 fold change [13] | log2 fold change [14] | log2 fold change [15]
1 | PPCS (UniProt Q9HAB8) | inactive: -0.013 | inactive: -0.014 | inactive: 0.016 | inactive: -0.053 | inactive: 0.016 | inactive: 0.024 | inactive: 0.052 | inactive: 0.011 | inactive: 0.004 | inactive: -0.006 | inactive: 0.049 | inactive: 0.067 | inactive: 0.017 | inactive: -0.001 | inactive: 0.004
2 | POFUT2 (UniProt Q9Y2G5) | inactive: -0.007 | inactive: -0.02 | inactive: -0.051 | inactive: 0.062 | inactive: -0.03 | inactive: -0.053 | inactive: -0.016 | inactive: 0.04 | inactive: -0.031 | inactive: 0.003 | inactive: -0.022 | inactive: 0.086 | inactive: -0.034 | inactive: -0.067 | inactive: -0.026
3 | PLOD1 (UniProt Q02809) | inactive: -0.016 | inactive: -0.02 | inactive: 0.008 | inactive: -0.049 | inactive: 0.004 | inactive: -0.008 | inactive: -0.01 | inactive: 0.03 | inactive: -0.016 | inactive: 0.018 | inactive: -0.011 | inactive: 0.072 | inactive: -0.017 | inactive: -0.024 | inactive: -0.01
4 | PLPP6 (UniProt Q8IY26) | inactive: 0.128 | inactive: -0.164 | inactive: -0.022 | inactive: -0.143 | inactive: -0.104 | inactive: 0.049 | inactive: 0.062 | inactive: 0.009 |  | inactive: -0.1 | inactive: -0.064 | inactive: -0.102 | inactive: -0.022 | inactive: -0.194 | 
5 | POGZ (UniProt Q7Z3K3) | inactive: -0.039 | inactive: 0.034 | inactive: -0.198 | inactive: 0.084 | inactive: 0.143 | inactive: -0.012 | inactive: 0.097 | inactive: 0.007 | inactive: 0.116 |  | inactive: 0.021 |  |  | inactive: 0.038 | inactive: -0.026
6 | PNN (UniProt Q9H307) | inactive: 0.022 | inactive: -0.007 | inactive: 0.025 | inactive: -0.018 | inactive: 0.01 | inactive: 0.005 | inactive: -0.004 | inactive: -0.058 | inactive: 0.004 | inactive: 0.03 | inactive: 0.027 | inactive: 0.035 | inactive: -0.088 | inactive: -0.055 | inactive: 0.009
7 | PMS1 (UniProt P54277) | inactive: -0.022 | inactive: 0 | inactive: -0.011 | inactive: -0.001 | inactive: 0.017 | inactive: -0.086 | inactive: 0.058 | inactive: 0.041 |  | inactive: -0.029 | inactive: 0.01 | active: -0.342 | inactive: 0.018 | inactive: 0.026 | inactive: -0.011
8 | PLRG1 (UniProt O43660) | inactive: -0.005 | inactive: 0.02 | inactive: 0.046 | inactive: 0.035 | inactive: -0.003 | inactive: -0.024 | inactive: 0.011 | inactive: -0.016 | inactive: -0.009 | inactive: 0.003 | inactive: 0.05 | inactive: 0.038 | inactive: -0.026 | inactive: -0.041 | inactive: 0.04
9 | PLS1 (UniProt Q14651) | inactive: 0.014 | inactive: 0.009 | inactive: -0.004 | inactive: 0.03 | inactive: 0.008 | inactive: -0.01 | inactive: -0.012 | inactive: 0 | inactive: -0.008 | inactive: -0.005 | inactive: 0.022 | inactive: 0.086 | inactive: -0.024 | inactive: 0.012 | inactive: 0.005

Source: the supplement of paper PMC10849652
